Assay results: PMC8229658 (Viruses, 2021)
These are yes or no findings as the source states them, for the method shown. Binding seen in cells or lysates may run through a third protein. Some binding calls cover weakened binding; strength is not graded here.

Chains of the proteins cited; added tags and fusions are not shown.
UniProt Q9Y265: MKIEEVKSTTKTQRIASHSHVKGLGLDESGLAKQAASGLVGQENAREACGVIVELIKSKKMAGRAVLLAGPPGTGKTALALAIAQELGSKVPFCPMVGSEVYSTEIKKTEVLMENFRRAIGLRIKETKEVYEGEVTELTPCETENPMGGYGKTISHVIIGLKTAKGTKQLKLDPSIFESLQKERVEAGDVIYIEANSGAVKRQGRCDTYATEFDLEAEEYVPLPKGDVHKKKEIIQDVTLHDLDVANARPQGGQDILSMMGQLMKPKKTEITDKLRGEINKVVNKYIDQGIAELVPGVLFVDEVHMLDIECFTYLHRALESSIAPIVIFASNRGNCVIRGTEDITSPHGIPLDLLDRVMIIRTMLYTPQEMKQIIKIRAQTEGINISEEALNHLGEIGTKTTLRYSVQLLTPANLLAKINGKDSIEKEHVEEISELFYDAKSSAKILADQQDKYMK
UniProt Q9Y230: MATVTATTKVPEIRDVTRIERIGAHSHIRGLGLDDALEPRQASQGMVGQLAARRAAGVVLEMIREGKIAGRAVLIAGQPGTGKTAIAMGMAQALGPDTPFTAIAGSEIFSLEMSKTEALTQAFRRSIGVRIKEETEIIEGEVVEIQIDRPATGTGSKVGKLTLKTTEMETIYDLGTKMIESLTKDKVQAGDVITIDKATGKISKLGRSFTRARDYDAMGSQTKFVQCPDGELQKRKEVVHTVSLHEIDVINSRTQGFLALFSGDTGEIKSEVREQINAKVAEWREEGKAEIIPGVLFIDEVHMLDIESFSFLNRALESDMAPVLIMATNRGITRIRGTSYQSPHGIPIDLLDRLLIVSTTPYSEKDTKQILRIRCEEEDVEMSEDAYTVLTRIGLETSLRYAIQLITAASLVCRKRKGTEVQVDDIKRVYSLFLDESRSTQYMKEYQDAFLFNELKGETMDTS
UniProt P03496: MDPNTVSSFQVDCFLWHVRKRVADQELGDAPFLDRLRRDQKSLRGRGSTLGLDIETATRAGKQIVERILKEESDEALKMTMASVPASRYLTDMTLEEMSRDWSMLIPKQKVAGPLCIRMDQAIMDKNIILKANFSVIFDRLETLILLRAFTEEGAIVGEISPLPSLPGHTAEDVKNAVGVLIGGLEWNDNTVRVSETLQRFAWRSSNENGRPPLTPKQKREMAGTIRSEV

Key:
Assay in all cases: co-IP
HA-tagged RuvBL1 = HA-tagged RuvBL1 (UniProt Q9Y265)
HA-tagged RuvBL2 (human) = HA-tagged RuvBL2 (human) (UniProt Q9Y230)
[1] = target: Flag-tagged NS1 protein of influenza A/PR/8/34 (PR8) virus (influenza A virus A/PR/8/34 (PR8)) (UniProt P03496)

Flag-tagged NS1 protein of influenza A/PR/8/34 (PR8) virus (from UniProt P03496 1-230)
binding (HA-tagged RuvBL1): binds
binding (HA-tagged RuvBL2 (human)): binds

HA-tagged RuvBL1 (from UniProt Q9Y265 1-456)
binding [1]: binds
